Laboratory results as given in PubChem BioAssay AID540256 (National Center for Advancing Translational Sciences (NCATS), 2011).
Values joined by “and” are separate entries in the source; they are usually repeats but may differ in a detail not shown here. Equal values may be shown once. The whole screen tested about 300,000 compounds, of which about 3,700 (1.2%) were called active. The shares of active, inactive and inconclusive entries below differ from those in the screen. Calls follow the shape of the full dose curve; tested in HEK293 cells. Where the call is inconclusive, the potency comes from a doubtful curve fit.

Experiment: qHTS for Inhibitors of binding or entry into cells for Lassa Virus; also: nearly all actives have a fitted effect of over 50% in size
Conditions: Lassa virus pseudotype entry inhibition, cell reporter; series mostly up to 37.9 µM
Potency is read from the fitted curve at half-maximal effect.

SMILES | Potency
CC1=NC(=O)C(N=Nc2ccccc2)N1c1ccccc1 (stereo unspecified) | inconclusive: 2.51 µM [activator, partial curve, poor fit]
O=[N+]([O-])c1cc(-c2nc(-c3ccccc3)no2)ccc1N1CCCC1 | inactive
O=C(CSc1nc(-c2ccccc2)[nH]c1-c1ccccc1)Nc1ccc2c(c1)OCO2 | inconclusive: 8.91 µM [inhibitor, partial curve, poor fit]
O=C(Nc1ccc(N2CCCCC2)cc1)c1cccnc1 | inconclusive: 2.51 µM [activator, full curve, poor fit]
Fc1ccc(Oc2nc(-c3ccccn3)nc3ccccc23)cc1 | inactive
Cc1ccc(-c2nc3ccccc3o2)cc1NC(=O)c1cccc2c(Cl)cccc12 | inactive
Cc1nc2sccn2c(=O)c1S(=O)(=O)Nc1ccc(N2CCN(S(C)(=O)=O)CC2)cc1 | inactive
Cc1cccc(C2Nc3ccccc3C(=O)N2c2ccc(F)cc2)n1 (stereo unspecified) | inconclusive: 0.103 µM [activator, partial curve, poor fit]
COc1cc(/C=N/c2oc(-c3ccccc3)cc2C#N)ccc1O | inactive
CC(C)[C@H](NC(=O)C1CCCC1)c1nc2ccccc2[nH]1 | inconclusive: 2.82 µM [inhibitor, single point]
Cc1cc(NS(=O)(=O)c2ccc(NC(=S)NC(=O)c3cccc(S(=O)(=O)N(C)C)c3)cc2)no1 | inconclusive: 35.5 µM [activator, single point]
Cc1c(C(=O)Oc2ccc(-c3cnc4ccccc4n3)cc2)cccc1[N+](=O)[O-] | inconclusive: 29.1 µM [activator, single point]
Cc1ccc(/C=[N+](\[O-])c2ccc(N(C)C)cc2)c2nsnc12 | inconclusive: 25.1 µM [inhibitor, single point]
CCOC(=O)C1(CCOc2ccccc2)CCN(Cc2ccc(O)c(OCC)c2)CC1 | inconclusive: 14.1 µM [inhibitor, single point]
COc1ccccc1OCCSc1ncnc2nc[nH]c12 | inactive
COc1ccccc1Cn1c(CNS(=O)(=O)c2ccc3c(c2)CCCC3)nc2cccnc21 | inconclusive: 20 µM [inhibitor, single point]
O=C(/C=C/c1ccco1)NC(=S)Nc1ccccc1N1CCOCC1 | inactive
Fc1ccc(Nc2nc3nonc3nc2Nc2cccc(C(F)(F)F)c2)cc1 | inconclusive: 2.51 µM [inhibitor, full curve]
CC(=O)N1CCc2cc(S(=O)(=O)NC3CCCCC3)ccc21 | inconclusive: 1.26 µM [activator, full curve, poor fit]
CN(c1ccc(NC(=O)Nc2c(Cl)cccc2Cl)cc1)c1ccnc(Nc2cccc(CS(C)(=O)=O)c2)n1 | inconclusive: 0.791 µM [activator, full curve]
COc1ccc(CNc2ncnc3c2[nH]c2ccccc23)cc1 | inconclusive: 20 µM [inhibitor, partial curve, poor fit]
O=c1c2oc3nc4c(cc3c2ncn1CCCc1ccccc1)CCCC4 | inconclusive: 35.5 µM [inhibitor, single point]
O=C(Nc1ccc(NC(=O)c2ccco2)nc1)c1ccco1 | inconclusive: 15.8 µM [inhibitor, single point]
S=C1NCN(C2CCCCC2)CN1Cc1ccccc1 | inconclusive: 1.26 µM [inhibitor, single point]

Some of the entries so far, field by field.
O=c1c2oc3nc4c(cc3c2ncn1CCCc1ccccc1)CCCC4
  Potency: inconclusive: 35.5 µM [inhibitor, single point]
O=C(Nc1ccc(NC(=O)c2ccco2)nc1)c1ccco1
  Potency: inconclusive: 15.8 µM [inhibitor, single point]

Copied from the entries so far for reference:
SMILES | Potency
Fc1ccc(Nc2nc3nonc3nc2Nc2cccc(C(F)(F)F)c2)cc1 | inconclusive: 2.51 µM [inhibitor, full curve]
CC(=O)N1CCc2cc(S(=O)(=O)NC3CCCCC3)ccc21 | inconclusive: 1.26 µM [activator, full curve, poor fit]
CN(c1ccc(NC(=O)Nc2c(Cl)cccc2Cl)cc1)c1ccnc(Nc2cccc(CS(C)(=O)=O)c2)n1 | inconclusive: 0.791 µM [activator, full curve]

Further structures follow:

SMILES | Potency
O=C(CCn1cccn1)NCc1ccc(Cl)cc1 | inactive
CCOC(=O)C(CC)Sc1ncnc2sc3c(c12)CCCC3 (stereo unspecified) | inactive
COc1cc2c(cc1NC(=S)NC(=O)/C=C/c1ccc(OC)c(OC)c1)oc1ccccc12 | inconclusive: 12.6 µM [activator, single point]
CC(=O)OCCn1c(Br)nc2c1c(=O)[nH]c(=O)n2C | inactive
Cc1nc(-n2nc(C)c(Cc3ccccc3Cl)c2C)sc1C(=O)N1CCC(C)CC1 | inactive
c1ccc2c(c1)NC1(CCCCCC1)n1c-2nc2ccccc21 | inactive
COc1ccc(NC(=O)Cn2nnc(-c3ccccc3NC(=O)c3cccs3)n2)cc1 | inconclusive: 2.51 µM [inhibitor, full curve]
N#CCc1ccc(C(=O)c2ccccc2F)s1 | inactive
NS(=O)(=O)c1ccc(N/N=C/c2ccccn2)c([N+](=O)[O-])c1 | inconclusive: 29.1 µM [inhibitor, single point]
CCCCn1c(=N)n(CC(O)c2ccccc2)c2ccccc21 (stereo unspecified) | inconclusive: 35.5 µM [inhibitor, single point]
Cc1cc(C=O)c(C)c2c1[nH]c1ccccc12 | inconclusive: 2.82 µM [inhibitor, partial curve, poor fit]
O=C(CN1CCC(Cc2ccccc2)CC1)NC(=O)NCc1ccccc1 | inactive
Cc1c(C(=O)N/N=C/C(C)C)[nH]c2ccc([N+](=O)[O-])cc12 | inconclusive: 3.16 µM [activator, partial curve, poor fit]
COC(=O)c1ccc(CN2CCN(Cc3ccccc3)CC2)cc1 | inactive
COc1ccc2ccccc2c1-c1c(OC)ccc2ccccc12 | inactive and inconclusive: 596 nM [inhibitor, full curve, poor fit]
CCS(=O)(=O)N1CCc2cc(C(=O)Nc3cccc(C)c3C)ccc21 | inconclusive: 35.5 µM [activator, single point]
CCOC(=O)C1CCCN(C(=O)c2c(C)nn(-c3ccc(F)cc3)c2-n2cccc2)C1 (stereo unspecified) | inactive
O=c1[nH]c(=O)n(Cc2ccccc2)c2nc(-c3ccc(Oc4ccc(F)cc4)c([N+](=O)[O-])c3)n(CCO)c12 | inconclusive: 20 µM [inhibitor, partial curve, poor fit]
CCCCCCn1c(N2CCC(C)CC2)nc2c1c(=O)[nH]c(=O)n2C | inconclusive: 22.4 µM [inhibitor, single point]
COc1cc(/C=N/NC(=S)NC2CC3CC2C2C=CCC32)ccc1O (stereo unspecified) | inconclusive: 35.5 µM [inhibitor, single point]
CCCCN(C)C(=O)C1CCN(Cc2ccc(OCc3ccccc3)cc2)CC1 | inconclusive: 35.5 µM [inhibitor, single point]
COc1ccc(OC)c(S(=O)(=O)N2CCC(C(=O)N3CCN(c4ccc(F)cc4)CC3)CC2)c1 | inactive
CSc1ccccc1C(=O)Nc1cc2c(cc1C(=O)O)OCCCO2 | inactive
O=C1c2ccccc2CC1(Cc1ccccc1)Cc1ccccc1 | inconclusive: 2.06 µM [inhibitor, single point]

SMILES | Potency
COc1ccc(S(=O)(=O)Nc2cc(Sc3ncn[nH]3)c(O)cc2C)cc1 | inactive
COCCSc1nnc(NC(=O)C2CCCO2)s1 (stereo unspecified) | inactive
O=C(NCCc1c[nH]c2ccccc12)c1ccccc1 | inconclusive: 1.12 µM [activator, full curve, poor fit]
COC(=O)c1nnn(CC(=O)NC(=O)Nc2ccccc2)c1C(=O)OC | inconclusive: 6.51 µM [inhibitor, partial curve, poor fit]
c1csc(-c2nn3c(C4COc5ccccc5O4)nnc3s2)c1 (stereo unspecified) | inconclusive: 8.2 µM [inhibitor, full curve, poor fit]
O=C(OCCN(C1=NS(=O)(=O)c2ccccc21)c1ccccc1Cl)c1ccc(Cl)cc1 | inconclusive: 0.73 µM [inhibitor, partial curve, poor fit]
CCN(CC)CCCNC(=O)c1ccc2c(c1)N(Cc1c(F)cccc1Cl)C(=O)c1ccccc1S2 | inconclusive: 22.4 µM [inhibitor, single point]
N#Cc1c[nH]n2c(NC3CCCCC3)c(-c3ccccc3F)nc12 | inactive
COc1cc(/C=N/O)ccc1OCc1ccccc1Cl | inconclusive: 35.5 µM [inhibitor, single point]
Cc1cccc(C(=O)NCCNC(=O)c2cccc(C)c2)c1 | inconclusive: 14.1 µM [inhibitor, single point]
NC(=O)c1ccsc1NC(=O)COC(=O)CSc1ccc(Cl)cc1 | inactive
Cc1[nH]n(-c2ccccc2)c(=O)c1C(C[N+](=O)[O-])c1ccc(Br)cc1 (stereo unspecified) | inconclusive: 17.8 µM [inhibitor, single point]
Cc1csc(NC(=O)CSC2=NCCS2)n1 | inactive
CCc1cc(C(=O)Nc2ccc(S(=O)(=O)NC3=NCCCCC3)cc2)sc1C | inactive
Cc1cccc(-n2ncc(C(=O)N3CCc4ccccc4C3)c2C2CCN(C(=O)OC(C)(C)C)CC2)c1 | inconclusive: 3.98 µM [inhibitor, partial curve, poor fit]
Cc1oc2ccc(O)c(CN3CCCCCC3)c2c1C(=O)Nc1cccc(Cl)c1C | inconclusive: 35.5 µM [inhibitor, single point]
Cc1ccc(Oc2nc3c(C)cccn3c(=O)c2/C=C(\C#N)C(N)=O)cc1 | inconclusive: 2.51 µM [inhibitor, partial curve, poor fit]
Cc1nnc(NC(=O)C(C)Sc2nnc(-c3ccco3)n2C)s1 (stereo unspecified) | inactive
Cc1cc(C)cc(NC(=O)Cn2c(=O)n(C(C)C)c(=O)c3oc4ccccc4c32)c1 | inactive
Nn1c(Cc2ccccc2F)nnc1SCCOc1ccc(Cl)cc1 | inconclusive: 14.6 µM [inhibitor, partial curve, poor fit]
O=C(CSc1nc(=O)n2ccccc2n1)N1CCCc2ccccc21 | inactive
CC1(C)CC(=O)c2cc(C(=O)Nc3ccc(Br)cc3)c(=O)[nH]c2C1 | inactive
CCN(C(=O)C1CCC(CNS(=O)(=O)c2cccc3nsnc23)CC1)c1ccccc1 (stereo unspecified) | inconclusive: 35.5 µM [inhibitor, single point]
